# From PMC8570464
# Protein sequences, listed by entry. Tags and fused reporters are not part of them.
# UniProt Q8N122: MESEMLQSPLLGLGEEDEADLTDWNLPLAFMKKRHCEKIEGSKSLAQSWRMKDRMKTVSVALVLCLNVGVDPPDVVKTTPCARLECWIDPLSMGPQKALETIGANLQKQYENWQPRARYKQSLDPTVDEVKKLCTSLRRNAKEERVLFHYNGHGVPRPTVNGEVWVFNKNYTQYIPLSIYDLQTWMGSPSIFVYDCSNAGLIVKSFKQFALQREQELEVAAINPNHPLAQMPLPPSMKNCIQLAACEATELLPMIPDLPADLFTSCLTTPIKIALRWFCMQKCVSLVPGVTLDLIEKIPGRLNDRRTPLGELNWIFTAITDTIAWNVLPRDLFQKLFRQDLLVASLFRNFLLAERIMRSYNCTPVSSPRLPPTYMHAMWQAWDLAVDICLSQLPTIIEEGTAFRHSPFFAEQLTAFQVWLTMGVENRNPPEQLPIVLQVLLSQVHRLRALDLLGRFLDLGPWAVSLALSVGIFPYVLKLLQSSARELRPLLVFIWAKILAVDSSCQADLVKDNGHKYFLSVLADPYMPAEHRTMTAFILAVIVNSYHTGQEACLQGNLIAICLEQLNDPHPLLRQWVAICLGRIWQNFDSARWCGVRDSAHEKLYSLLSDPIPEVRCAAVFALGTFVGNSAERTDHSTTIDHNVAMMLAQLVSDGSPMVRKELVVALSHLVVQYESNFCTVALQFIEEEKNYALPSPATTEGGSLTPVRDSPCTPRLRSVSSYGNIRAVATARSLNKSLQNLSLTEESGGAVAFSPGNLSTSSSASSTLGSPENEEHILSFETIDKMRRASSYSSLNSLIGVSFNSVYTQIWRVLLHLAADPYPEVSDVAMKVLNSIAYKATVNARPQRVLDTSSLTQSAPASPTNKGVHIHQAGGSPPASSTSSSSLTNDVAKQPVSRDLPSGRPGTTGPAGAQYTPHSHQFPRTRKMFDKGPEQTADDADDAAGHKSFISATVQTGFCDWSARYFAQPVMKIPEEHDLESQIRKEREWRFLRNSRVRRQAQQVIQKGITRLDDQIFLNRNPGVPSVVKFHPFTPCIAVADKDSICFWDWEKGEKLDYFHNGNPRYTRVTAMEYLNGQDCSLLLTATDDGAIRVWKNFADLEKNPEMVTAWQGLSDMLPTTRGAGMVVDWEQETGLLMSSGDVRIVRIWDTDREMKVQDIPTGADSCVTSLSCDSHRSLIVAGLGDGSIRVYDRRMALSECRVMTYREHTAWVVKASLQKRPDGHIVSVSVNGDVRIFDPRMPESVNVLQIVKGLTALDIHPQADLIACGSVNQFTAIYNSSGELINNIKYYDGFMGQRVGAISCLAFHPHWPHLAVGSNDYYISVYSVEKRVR
# UniProt P13861: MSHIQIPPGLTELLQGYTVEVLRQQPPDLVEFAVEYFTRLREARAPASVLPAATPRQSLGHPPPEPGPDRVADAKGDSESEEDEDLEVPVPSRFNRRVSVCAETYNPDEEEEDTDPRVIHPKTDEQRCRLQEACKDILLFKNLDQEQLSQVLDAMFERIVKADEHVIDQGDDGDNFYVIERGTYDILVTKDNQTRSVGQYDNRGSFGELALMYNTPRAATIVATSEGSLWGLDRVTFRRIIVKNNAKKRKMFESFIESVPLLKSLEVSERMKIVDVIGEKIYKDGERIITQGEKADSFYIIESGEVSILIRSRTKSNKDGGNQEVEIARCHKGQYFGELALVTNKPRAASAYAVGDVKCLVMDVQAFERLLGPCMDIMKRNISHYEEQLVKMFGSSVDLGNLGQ
# UniProt P10644: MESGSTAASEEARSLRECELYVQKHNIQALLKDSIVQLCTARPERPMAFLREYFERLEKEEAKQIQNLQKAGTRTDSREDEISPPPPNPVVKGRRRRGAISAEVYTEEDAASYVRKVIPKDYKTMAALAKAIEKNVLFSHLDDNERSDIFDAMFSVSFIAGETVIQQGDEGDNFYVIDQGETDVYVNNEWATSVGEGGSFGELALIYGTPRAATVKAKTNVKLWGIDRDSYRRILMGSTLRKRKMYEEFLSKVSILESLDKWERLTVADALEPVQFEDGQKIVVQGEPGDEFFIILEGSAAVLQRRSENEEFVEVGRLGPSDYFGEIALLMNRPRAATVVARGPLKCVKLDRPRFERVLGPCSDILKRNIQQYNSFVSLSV
# These are yes or no findings as the source states them, for the method shown. Binding seen in cells or lysates may run through a third protein. Some results given as binding are weak or reduced against the parent protein; the word gives no strength. For some assays here: Sequences can lack the tags named with a protein.
# B1: Flag-tagged AKAP13 1388–2190 (domain or fragment, UniProt Q12802-2 1388-2190)
# chain: INRENWCTIEPCPDAASLLASKQSPECENFLDVGLGRECTSKQGVLKRESGSDSDLFHSPSDDMDSIIFPKPEEEHLACDITGSSSSTDDTASLDRHSSHGSDVSLSQILKPNRSRDRQSLDGFYSHGMGAEGRESESEPADPGDVEEEEMDSITEVPANCSVLRSSMRSLSPFRRHSWGPGKNAASDAEMNHRSMSWCPSGVQYSAGLSADFNYRSFSLEGLTGGAGVGNKPSSSLEVSSANAEELRHPFSGEERVDSLVSLSEEDLESDQREHRMFDQQICHRSKQQGFNYCTSAISSPLTKSISLMTISHPGLDNSRPFHSTFHNTSANLTESITEENYNFLPHSPSKKDSEWKSGTKVSRTFSYIKNKMSSSKKSKEKEKEKDKIKEKEKDSKDKEKDKKTVNGHTFSSIPVVGPISCSQCMKPFTNKDAYTCANCSAFVHKGCRESLASCAKVKMKQPKGSLQAHDTSSLPTVIMRNKPSQPKERPRSAVLLVDETATTPIFANRRSQQSVSLSKSVSIQNITGVGNDENMSNTWKFLSHSTDSLNKISKVNESTESLTDEGVGTDMNEGQLLGDFEIESKQLEAESWSRIIDSKFLKQQKKDVVKRQEVIYELMQTEFHHVRTLKIMSGVYSQGMMADLLFEQQMVEKLFPCLDELISIHSQFFQRILERKKESLVDKSEKNFLIKRIGDVLVNQFSGENAERLKKTYGKFCGQHNQSVNYFKDLYAKDKRFQAFVKKKMSSSVVRRLGIPECILLVTQRITKYPVLFQRILQCTKDNEVEQEDLAQSLSLVKDVIG
# Key:
# HA-tagged Raptor = HA-tagged Raptor (UniProt Q8N122); test: co-IP; HA-tagged Raptor co-expressed with Flag-tagged AKAP13 full-length or truncations for 24 hours; HA IP; immunoblot
# [1] = biological target: Flag-tagged AKAP13 full-length (amino acids 1–2817) (human) (UniProt Q12802); test: co-IP; Flag-tagged AKAP13 co-expressed with HA-tagged Raptor in HEK293A cells for 24 hours; 0.3% CHAPS lysis; anti-Flag beads; immunoblot
binding (HA-tagged Raptor),binding [1],Molecule
binds,–,Flag-tagged AKAP13 full-length (amino acids 1–2817) (from UniProt Q12802-2 1-2817)
–,binds,HA-tagged Raptor (from UniProt Q8N122 1-1335)
binds,–,PKA regulatory subunit IIα (from UniProt P13861 1-404)
–,no binding,PKA regulatory subunit Iα (from UniProt P10644 1-381)
binds,–,B1
